Measurements reported in PubChem BioAssay AID662 (National Center for Advancing Translational Sciences (NCATS), 2007).
This is one part of the list. Further columns of the screen follow, without active or inactive calls. The list favours compounds with an active or inconclusive main result. The note in brackets gives the kind of curve behind each potency; many fits are weak.

Test: Cell signaling CRE-BLA (Fsk stim)
Details: CHO CRE-bla reporter (cAMP response element driving beta-lactamase), forskolin EC10, beta-lactamase ratio; measured here: 460 nm blue channel
Method in brief: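 CRE-bla CHO cells stimulated with EC10 NKH 477 (water-soluble forskolin) and compound titrations, 3 h at 37C; beta-lactamase read with CCF4 after 2 h at room temperature. Activity from 460/530 nm emission ratio, AC50 values for positive or negative modulation.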

Row | SMILES | AC50
1 | O=C(C1CCN(S(=O)(=O)c2cccc3nsnc23)CC1)N1CCc2ccccc2C1 | 3.98 µM [falling, single point]
2 | CN(C)c1nc(Oc2ccc(=O)n(-c3ccccc3)n2)nc(N2CCOCC2)n1 | 20 µM [rising, single point]
3 | Nc1cc(=O)nc(SCc2ccccc2)n1Cc1ccco1 | 3.16 µM [falling, single point]
4 | Cc1ccc(S(=O)(=O)c2cccc(S(=O)(=O)N3CCCC3)c2)cc1S(=O)(=O)N1CCCC1 | 20 µM [falling, single point]
5 | OC(CN1C2=NCCN2c2ccccc21)c1ccc2c(c1)OCO2 (configuration not stated) | 10 µM [rising, partial curve]
6 | CCOc1cc(N2CCOCC2)c(OCC)cc1NC(=O)c1nc2nc(C)cc(C)n2n1 | 6.31 µM [rising, full curve]
7 | c1ccc(CCc2ccccc2-c2nc(-c3ccccn3)no2)cc1 | 31.6 µM [falling, single point]
8 | Brc1ccc(NCc2nnc3n2CCCCC3)cc1 | 25.1 µM [rising, single point]
9 | Cc1cc2cc(CN(Cc3cccs3)Cc3nnnn3CC3CCCO3)c(=O)[nH]c2cc1C (configuration not stated) | 12.6 µM [rising, single point]
10 | CCOc1ccc(CC(=O)Nc2c(C(N)=O)oc3ccc(Br)cc23)cc1OCC | 6.31 µM [rising, partial curve]
11 | Cn1c(SCc2nc3ccccc3n2CCO)nc2ccccc21 | 20 µM [rising, single point]
12 | CC(C)(C)C(=O)[C@@H]1[C@@H]2C(=O)N(c3ccc4c(c3)OCCO4)C(=O)[C@@H]2C2c3ccccc3C=CN21 (some centres not stated) | 15.8 µM [falling, partial curve]
13 | COc1ccc(-c2cc(CCCC(=O)NCCc3cc(OC)ccc3OC)no2)cc1 | 5.01 µM [rising, full curve, poor fit]
14 | Cc1cc(=O)[nH]c(S/C=C/c2ccccc2)n1 | 10 µM [falling, partial curve]
15 | CC(C(=O)OCC(=O)Nc1ccc2c(c1)OCO2)N1C(=O)c2ccccc2C1=O (configuration not stated) | 3.98 µM [falling, partial curve, poor fit]
16 | CN(C)c1nc(-c2cccc(NS(C)(=O)=O)c2)nc2ccccc12 | 12.6 µM [rising, partial curve]
17 | O=C(Cc1cc(=O)[nH]c(=O)[nH]1)NCCN1CCOCC1 | 10 µM [rising, partial curve]
18 | FC(F)(F)c1cc(-c2ccccc2)nc(-n2cncn2)n1 | 15.8 µM [rising, single point]
19 | O=c1c2[nH]c3ccccc3c2ncn1CCC1=CCCCC1 | 0.316 µM [rising, full curve]
20 | CCCP(=O)(CC(=O)O)c1ccccc1 (configuration not stated) | 1.58 µM [rising, partial curve]
21 | N#CCCn1c(=O)c(-c2ccccc2)nc2cnc(Nc3ccccc3)nc21 | 5.01 µM [rising, partial curve]
22 | COc1cccc(-c2nn(C)c3sc(C(=O)N4CCOCC4)cc23)c1 | 12.6 µM [rising, partial curve]
23 | COc1ccc(-n2c(Cc3cccn3C)nnc2SCC(=O)NCc2ccco2)cc1 | 12.6 µM [rising, single point]

Row | SMILES | AC50
24 | COc1ccccc1CNc1ccnc(-c2cccc(NS(C)(=O)=O)c2)n1 | 6.31 µM [rising, partial curve]
25 | CCN(CC)S(=O)(=O)c1ccc(Nc2cc(C)nc3ncnn23)cc1 | 25.1 µM [rising, single point]
26 | CC(C)(C)NC(=O)[C@@H]1C[C@@H]2CCCC[C@@H]2CN1C[C@@H](O)[C@H](Cc1ccccc1)NC(=O)[C@H](CC(N)=O)NC(=O)c1ccc2ccccc2n1 | 31.6 µM [falling, single point]
27 | C/C(Nc1ccc(F)cc1)=C(/C#N)C(N)=O | 2.51 µM [falling, partial curve, poor fit]
28 | CN1CCN(c2ncnc3ccc(-c4ccccc4C(F)(F)F)cc23)CC1 | 12.6 µM [rising, partial curve]
29 | COc1ccc(-c2nnc(CSc3nc4ccccc4c(=O)n3CC3CCCO3)o2)cc1OC (configuration not stated) | 0.631 µM [rising, full curve]
30 | COc1cc(C(=O)Nc2ccccc2N2CCN(S(C)(=O)=O)CC2)cc(OC)c1OC | 12.6 µM [rising, partial curve]
31 | CCOC(=O)Nc1cc(OCC)c(NC(=O)C2CC2)cc1OCC | 12.6 µM [rising, single point]
32 | CCc1c2c(nc3ccc(OC)cc13)COC2 | 10 µM [rising, partial curve]
33 | O=c1c(-c2ccc(Cl)cc2)nc2cnc(N3CCNCC3)nc2n1Cc1ccc(F)cc1 | 1.58 µM [rising, full curve]
34 | c1ccc(CSCCc2ccncc2)cc1 | 2.51 µM [rising, single point]
35 | N#Cc1cc2c(nc1SCc1ccccc1)CCCC2=O | 12.6 µM [rising, single point]
36 | CCOC(=O)C1CCCN(C2CC(=O)N(c3cccc(C(F)(F)F)c3)C2=O)C1 (configuration not stated) | 12.6 µM [falling, single point]
37 | CCNc1cc(=O)n(C)c(=O)n1C | 12.6 µM [rising, single point]
38 | NCCCCCCNS(=O)(=O)c1cccc2ccccc12 | 31.6 µM [rising, single point]
39 | CCCc1[nH]nc2c1C(CCc1ccccc1)C(C#N)=C(N)O2 (configuration not stated) | 0.251 µM [falling, full curve]
40 | O=C(Nc1nc2ccccc2s1)C1CCCN1S(=O)(=O)c1ccc(Cl)cc1 (configuration not stated) | 15.8 µM [falling, partial curve]
41 | COc1cc2c(cc1NC(C)=O)CCCC2 | 0.00398 µM [falling, full curve]
42 | Cc1ccc(Cn2nnc3c(=O)n(CC(=O)NCc4ccco4)cnc32)cc1 | 0.0794 µM [falling, full curve]
43 | Cn1c(=S)[nH]c2cccnc21 | 25.1 µM [rising, single point]
44 | O=C(CCc1ccc(CCC(=O)c2cccs2)s1)c1cccs1 | 0.794 µM [falling, partial curve]
45 | Cc1c(C#N)c2ncnc(N)c2n1-c1ccccc1 | 12.6 µM [falling, partial curve]
46 | COc1nc(N2CCOCC2)nc(-n2cccc2)n1 | 10 µM [rising, single point]

Row | SMILES | AC50
47 | c1ccc2oc(SCc3cn4ccccc4n3)nc2c1 | 12.6 µM [rising, single point]
48 | CC1CCN(C(=O)Cn2c(=O)n(Cc3ccc4c(c3)OCO4)c(=O)c3ccccc32)CC1 | 0.631 µM [falling, partial curve]
49 | Cc1ccc(S(=O)(=O)NC2OC(=O)C(Cl)=C2Cl)cc1 (configuration not stated) | 25.1 µM [falling, single point]
50 | Cc1c(Br)cc(C(=O)NCCCN2CCOCC2)c(C)c1C | 0.00398 µM [falling, full curve]
51 | O=C(CSc1nnc(-c2ccccn2)n1Cc1ccco1)c1ccc(-c2ccccc2)cc1 | 25.1 µM [falling, partial curve]
52 | C=CCc1c(C)nc(SCC(=C)C)[nH]c1=O | 0.631 µM [falling, full curve, poor fit]
53 | COC(=O)C1CCN(C(c2cc(OC)c(OC)c(OC)c2)c2sc3nc(C)nn3c2O)CC1 (configuration not stated) | 12.6 µM [rising, partial curve]
54 | N#CCCn1c(=O)c(-c2cccs2)nc2cnc(N3CCNCC3)nc21 | 10 µM [rising, partial curve]
55 | O=C(c1ccc2c(c1)OCO2)N1CCCCC1 | 3.16 µM [rising, partial curve, poor fit]
56 | CCOC(=O)N1CC=C2C(C#N)=C(N)C(C#N)(C#N)[C@H](c3ccc(OC(C)C)c(OCC)c3)[C@H]2C1 | 10 µM [rising, partial curve, poor fit]
57 | COc1ccc(S(=O)(=O)Cc2ccc(C(=O)N3CCN(c4ccc(Cl)cc4)CC3)o2)cc1 | 25.1 µM [falling, single point]
58 | COc1ccc(C2C(C(=O)N3CCN(C)CC3)c3ccccc3C(=O)N2C2CCCCC2)cc1 (configuration not stated) | 0.794 µM [falling, full curve, poor fit]
59 | O=C(Nc1nc(-c2cccs2)cs1)c1ccc(S(=O)(=O)N2CCCC2)cc1 | 6.31 µM [falling, partial curve]
60 | CCOC(=O)c1cccc(N2C(=O)c3ccccc3S2(=O)=O)c1 | 12.6 µM [rising, partial curve]
61 | Cc1ccccc1Nc1ncnc2c1cnn2-c1ccccc1 | 10 µM [rising, partial curve]
62 | COc1ccc(Br)cc1S(=O)(=O)N1CCOCC1 | 3.16 µM [falling, single point]
63 | COc1cc(C2NC(=O)NC(c3ccccc3)=C2C(C)=O)ccc1OCC(=O)O (configuration not stated) | 12.6 µM [rising, partial curve]
64 | Cc1ccc(CNC(=O)C2c3ccccc3C(=O)N(C)C2c2c[nH]c3ccccc23)o1 (configuration not stated) | 0.0251 µM [falling, full curve, poor fit]
65 | Cc1ccc(-c2nnc(N3CCCCC3)c3ccccc23)cc1S(=O)(=O)N1CCN(C)CC1 | 10 µM [rising, partial curve]
66 | CCOC(=O)c1ccc(N2C(=O)CC(N3CCC(O)(c4ccc(Cl)cc4)CC3)C2=O)cc1 (configuration not stated) | 0.0126 µM [falling, full curve, poor fit]
67 | CC(=O)CC1(C)OC(N)=C(C#N)C1(C#N)C#N (configuration not stated) | 12.6 µM [falling, partial curve]
